Data as given in PubChem BioAssay AID1224830 (NIAID, 2016)
Here is an unselected part of about 18,000 reagents. Of all reagents, about 2,900 (16%) were called active. 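Calls are made per well; low scores hint the gene aids the LPS response, high scores that it dampens it.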 Unmarked entries are inactive. Repeated entries: four replicate wells of each siRNA pool.

Test: 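Host factors that control LPS-induced TNF expression in human macrophages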 (primary screen)
Cell system: human THP-1 monocytic leukaemia cells, TNF dual-luciferase reporter clone, PMA-differentiated to macrophage-like cells
Knock-down reagent: siRNA pool against human genes, 50 nM
Timing: LPS for 4 h, given about 3 days after siRNA transfection
Conditions: bacterial LPS (TLR4 ligand), 10 ng/ml
Detection: 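Ratio of firefly to renilla light, scaled to the plate median and expressed as a robust z-score per replicate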
Scale: TNF reporter robust z-score: higher = stronger TNF reporter response to LPS
Rule for the call: 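a well is active when its z-score exceeds 2.8 or falls below -1.5; control wells carry no call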

The first 4 entries, ahead of the listing:
NSD3 → TNF reporter robust z-score: 0.79
NSD3 → TNF reporter robust z-score: 1.51
NSD3 → TNF reporter robust z-score: 1.3
NSD3 → TNF reporter robust z-score: 0.65

Main list, from the start:
NSD3 → TNF reporter robust z-score: 0.79
NSD3 → TNF reporter robust z-score: 1.51
NSD3 → TNF reporter robust z-score: 1.3
NSD3 → TNF reporter robust z-score: 0.65
GUSB → TNF reporter robust z-score: -0.91
GUSB → TNF reporter robust z-score: -1.05
GUSB → TNF reporter robust z-score: -1.11
GUSB → TNF reporter robust z-score: -0.93
IL1RAPL1 → TNF reporter robust z-score: 1.99
IL1RAPL1 → TNF reporter robust z-score: 1.57
IL1RAPL1 → TNF reporter robust z-score: 0.56
IL1RAPL1 → TNF reporter robust z-score: -0.68
TTC7B → TNF reporter robust z-score: -0.32
TTC7B → TNF reporter robust z-score: 0.2
TTC7B → TNF reporter robust z-score: 0.48
TTC7B → TNF reporter robust z-score: 0.96
VARS2 → TNF reporter robust z-score: 0.67
VARS2 → TNF reporter robust z-score: -0.33
VARS2 → TNF reporter robust z-score: 1.59
VARS2 → TNF reporter robust z-score: 1.67
C4orf17 → TNF reporter robust z-score: 1.45
C4orf17 → TNF reporter robust z-score: 0.36
C4orf17 → TNF reporter robust z-score: 0.14
C4orf17 → TNF reporter robust z-score: 1.3
DNAJC30 → TNF reporter robust z-score: 0.48
DNAJC30 → TNF reporter robust z-score: 0.06
DNAJC30 → TNF reporter robust z-score: -0.16
DNAJC30 → TNF reporter robust z-score: 0.9
HAUS3 → TNF reporter robust z-score: 0.03
HAUS3 → TNF reporter robust z-score: -0.06
HAUS3 → TNF reporter robust z-score: 0.25
NHERF1 → TNF reporter robust z-score: 0.62
NHERF1 → TNF reporter robust z-score: -0.01
NHERF1 → TNF reporter robust z-score: -0.02
NHERF1 → TNF reporter robust z-score: 1.36
UPF2 → TNF reporter robust z-score: 0.04
UPF2 → TNF reporter robust z-score: 0.45
UPF2 → TNF reporter robust z-score: 0.73
UPF2 → TNF reporter robust z-score: 0.28
COQ9 → TNF reporter robust z-score: -0.46
COQ9 → TNF reporter robust z-score: -0.28
COQ9 → TNF reporter robust z-score: -0.19
COQ9 → TNF reporter robust z-score: 1.17
PDIA3 → TNF reporter robust z-score: -0.83
PDIA3 → TNF reporter robust z-score: -1.26
PDIA3 → TNF reporter robust z-score: -0.67
PDIA3 → TNF reporter robust z-score: -0.71
